Part of at least one peptide drawing is inferred or uncertain, most often the ends. Non-standard residues stand in square brackets, D forms with d. Residues, ends and D or L forms follow the SMILES beside them.
Key:
[1] = tested on: MDA-MB-231 cells; assay: Cell viability, Alamar blue assay; format: cell-based, human; settings: 10 μM or 5 μM, 5 days
[2] = tested on: MCF-10A cells; assay: Penetration of fluorescein-labeled peptide into non-malignant cells; format: cell-based; settings: peptides marked with Fluorescein, 10 μM, 3 h, FIG. 12
Description: (§1) To elucidate the site of action of the peptide having SEQ ID NO: 1, the peptide was labeled as described in Example 1 and incubated with normal and malignant cells (MCF-10A and MDA-MB-231 cells, respectively). […] Without being bound to any specific theory it was estimates that the peptide affects or disrupts the structure of the mitochondrial and nuclear membrane.
(§2) In addition to D-PEP peptide (SEQ ID NO:3), in which all amino acids of SEQ ID NO: 1 were substituted to D-amino acids, a peptide comprising only 3 D-amino acids was produced and has the sequence FLGVLALLGyLAVRPfLPKkKQQK (SEQ ID NO: 2, referred as 3D-PEP). This peptide, as well as D-PEP, both marked with Fluorescein, were tested for their ability to penetrate into non-tumor MCF-10A and malignant MDA-MB-231 and for their toxicity, as described in Example 3. Briefly, cells were incubated with 10 μM of each sample of the peptides for 3 h and then intensively washed. Cell fluorescence was observed by semi-confocal microscope. For cell viability measurement, cells were incubated with 10 μM or 5 μM of each one of the peptides for 5 days and then cell viability was assayed using Alamar blue assay.

[3] = tested on: MDA-MB-231 cells; assay: Penetration of fluorescein-labeled peptide into malignant cells; format: cell-based, human; settings: peptides marked with Fluorescein, 10 μM, 3 h, FIG. 12
Description: as §1, §2

[4] = tested on: MDA-MB-231 cells; assay: Toxicity, presto blue viability assay, malignant cells; format: cell-based, human; settings: 25 μM, 2 days, FIG. 13
[5] = tested on: MDA-MB-231 cells overexpressing NAF-1; assay: Breast cancer xenograft tumor size in nude mice; format: in vivo; settings: intratumoral (IT) injection 135 μg/Kg, days 18-30; vs IT PBS and IP D-PEP; FIG. 5
[6] = tested on: MDA-MB-231 breast cancer spheroids; assay: ROS in spheroids, CellROS Deep Red Reagent; format: cell-based, human; settings: MDA-MB-231 spheroids, FIG. 10
[7] = tested on: PC3 spheroids; assay: ROS in spheroids, CellROS Deep Red Reagent; format: cell-based; settings: for oxidative stress (total ROS integrated intensity): FIG. 9
[8] = tested on: MDA-MB-231 breast cancer spheroids; assay: 3D spheroid apoptosis/cytotoxicity, Annexin V-red, IncuCyte; format: cell-based, human; settings: 50 μM, 36 hours incubation, FIG. 4
Description: The MDA-MB-231 cells were plated in quadruplicate at 2×10^3 cells per well in a 96 well ULA plate (Corning 7007) and the cells were further cultured for 3 days to form spheroids. Then, the spheroids were treated with the peptides having SEQ ID NO:1 and the apoptosis of spheroids was assayed using Annexin V-red detection marker. Spheroids were imaged at ×10 magnification in an IncuCyte Zoom Live-cell analysis system (Essen Bioscience) at 37° C. with 5% CO2. Spheroid cell images were recorded every two hours and the resulting red colors, reflecting cell apoptosis, were analyzed with the IncuCyte software.)
Similarly to Example 2, the effect of D-PEP on “tumor like” 3D cancer cell spheroids of prostate cancer cells PC3 and MDA-MB-231, was tested and quantified. Annexin V-red apoptosis marker indicator was used to assess cytotoxicity and the cytotoxicity was calculated as integrated intensity over the surface (RCU×μm^2/Image).

Row | SMILES | toxicity (cell viability) [1] | penetration into non-tumor cells [2] | penetration into malignant cells [3] | vitality of malignant cells [4] | tumor size [5] | appearance of ROS versus control ([6]; 10 μM) | appearance of ROS ([6]; 50 μM) | time after which difference in oxidative stress versus control diminishes ([7]; 10 μM) | oxidative stress (total ROS integrated intensity) ([7]; 10 μM) | oxidative stress (total ROS integrated intensity) ([7]; 50 μM) | apoptosis / death of spheroid cells [8]
1 | CC(C)C[C@H](NC(=O)[C@H](C)NC(=O)[C@H](CC(C)C)NC(=O)[C@@H](NC(=O)CNC(=O)[C@H](CC(C)C)NC(=O)[C@@H](N)Cc1ccccc1)C(C)C)C(=O)N[C@@H](CC(C)C)C(=O)NCC(=O)N[C@H](Cc1ccc(O)cc1)C(=O)N[C@@H](CC(C)C)C(=O)N[C@@H](C)C(=O)N[C@H](C(=O)N[C@@H](CCCNC(=N)N)C(=O)N1CCC[C@H]1C(=O)N[C@H](Cc1ccccc1)C(=O)N[C@@H](CC(C)C)C(=O)N1CCC[C@H]1C(=O)N[C@@H](CCCCN)C(=O)N[C@H](CCCCN)C(=O)N[C@@H](CCCCN)C(=O)N[C@@H](CCC(N)=O)C(=O)N[C@@H](CCC(N)=O)C(=O)N[C@@H](CCCCN)C(=O)O)C(C)C [3D-PEP, FLGVLALLGyLAVRPfLPKkKQQK] (H-FLGVLALLG[dY]LAVRP[dF]LPK[dK]KQQK-OH; N-terminus and C-terminus assumed) | high toxicity | very limited | clearly visualized within the malignant MDA-MB-231 cells | about 55% |  |  |  |  |  |  | 
2 | CC(C)C[C@@H](NC(=O)[C@H](N)Cc1ccccc1)C(=O)NCC(=O)N[C@@H](C(=O)N[C@H](CC(C)C)C(=O)N[C@H](C)C(=O)N[C@H](CC(C)C)C(=O)N[C@H](CC(C)C)C(=O)NCC(=O)N[C@H](Cc1ccc(O)cc1)C(=O)N[C@H](CC(C)C)C(=O)N[C@H](C)C(=O)N[C@@H](C(=O)N[C@H](CCCNC(=N)N)C(=O)N1CCC[C@@H]1C(=O)N[C@H](Cc1ccccc1)C(=O)N[C@H](CC(C)C)C(=O)N1CCC[C@@H]1C(=O)N[C@H](CCCCN)C(=O)N[C@H](CCCCN)C(=O)N[C@H](CCCCN)C(=O)N[C@H](CCC(N)=O)C(=O)N[C@H](CCC(N)=O)C(=O)N[C@H](CCCCN)C(=O)O)C(C)C)C(C)C [D-PEP, flgvlallgylavrpflpkkkqqk] (H-[dF][dL]G[dV][dL][dA][dL][dL]G[dY][dL][dA][dV][dR][dP][dF][dL][dP][dK][dK][dK][dQ][dQ][dK]-OH; N-terminus and C-terminus assumed) | high toxicity | very limited | clearly visualized within the malignant MDA-MB-231 cells |  | developed the smallest tumors | significant difference in appearance of ROS | profound difference in comparison to 10 μM | about 5.5 hours | also increased the oxidative stress, though less efficiently than 50 μM dose | efficiently increased the oxidative stress | 
3 | CC(C)C[C@H](NC(=O)[C@H](C)NC(=O)[C@H](CC(C)C)NC(=O)[C@@H](NC(=O)CNC(=O)[C@H](CC(C)C)NC(=O)[C@@H](N)Cc1ccccc1)C(C)C)C(=O)N[C@@H](CC(C)C)C(=O)NCC(=O)N[C@@H](Cc1ccc(O)cc1)C(=O)N[C@@H](CC(C)C)C(=O)N[C@@H](C)C(=O)N[C@H](C(=O)N[C@@H](CCCNC(=N)N)C(=O)N1CCC[C@H]1C(=O)N[C@@H](Cc1ccccc1)C(=O)N[C@@H](CC(C)C)C(=O)N1CCC[C@H]1C(=O)N[C@@H](CCCCN)C(=O)N[C@@H](CCCCN)C(=O)N[C@@H](CCCCN)C(=O)N[C@@H](CCC(N)=O)C(=O)N[C@@H](CCC(N)=O)C(=O)N[C@@H](CCCCN)C(=O)O)C(C)C [SEQ ID NO: 1] (H-FLGVLALLGYLAVRPFLPKKKQQK-OH; N-terminus and C-terminus assumed) |  |  |  |  |  |  |  |  |  |  | all tumor-like cells were killed

Reference: US11208443B2, “NAF-1 derived peptides and uses thereof” (YISSUM RESEARCH DEVELOPMENT COMPANY OF THE HEBREW …, priority 2017, dated 2021)
